This is one part of the list. These are further read-outs of the screen, such as a control signal, another cell line or another target. No call is given for them. Compounds called inactive in the main read-out are mostly missing here. The note in brackets gives the kind of curve behind each potency; many fits are weak.
Test: qHTS Assay for Lipid Storage Modulators in Drosophila S3 Cells;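 on cell number change: cells counted by Cell Tracker Red CMTPX staining in the red channel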
Conditions: BODIPY lipid droplet fluorescence, 18-24 h; for cell number change: measured here: cell count max response, cells fed with added oleic acid
In short: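 Laser-scanning cytometry quantifies lipid droplet accumulation (500–530 nm total intensity; droplet/cell object ratio) in oleic acid-fed (400 uM added) Drosophila S3 cells treated with a concentration series. 20 uM Triacsin C defined 100% inhibition.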

[1] = measured here: cell number channel AC50, cells fed with added oleic acid
[2] = measured here: lipid fluorescence (Fed channel) AC50, cells fed with added oleic acid

SMILES	AC50 [1]	AC50 [2]	cell number change
Cn1cc(C(=O)c2ccc(F)cc2)cc1-c1nc2ccccc2n1C	6.51 µM [rising, single point]	2.91 µM [rising, partial curve]	
CCOc1ccc2ccccc2c1C1NC(=O)NC(C)=C1C(=O)OCCOC (centres undefined)		29.1 µM [rising, single point]	7.21%
CN(c1cccc(Cl)c1)S(=O)(=O)c1cccc(C(=O)NCc2ccncc2)c1		6.51 µM [rising, single point]	-0.323%
COc1ccc(N(C)S(=O)(=O)c2cccc3cccnc23)c(OC)c1			-18.7%
CC(C)(C)c1ccc(-c2csc(NNC3=NCCCCC3)n2)cc1	14.6 µM [falling, partial curve, poor fit]		-92.2%
COc1ccc(-c2cc(=O)oc3cc(OC(=O)C4CCCCC4)c(Cl)cc23)cc1		3.66 µM [falling, partial curve]	4.1%
CC(C)C(O)(c1ccccc1)C(CN1CCOCC1)c1ccccc1 (centres undefined)	16.4 µM [falling, single point]	13 µM [falling, partial curve]	-41.4%
CCOC(=O)c1ccc(N2C(=O)C(CC(N)=O)N(NC(=O)c3cccc(F)c3)C2=S)cc1 (centres undefined)		29.1 µM [falling, single point]	-11.1%
O=C(Nc1cnn(C23CC4CC(CC(C4)C2)C3)c1)c1cnn2c(C(F)(F)F)cc(-c3ccco3)nc12	5.8 µM [falling, partial curve]	2.31 µM [falling, full curve]	-20.1%
O=c1c2cccnc2[nH]c(=S)n1CCCN1CCN(c2ccccc2F)CC1		6.51 µM [rising, single point]	19.1%
CC(C)CC(=O)NC(=S)Nc1ccc(S(=O)(=O)N2CCCC2)cc1		29.1 µM [falling, single point]	-18.7%
Cc1ccc(S(=O)(=O)NC(=NCC(=O)O)c2ccccc2)cc1		0.164 µM [falling, full curve, poor fit]	-26%
O=C(Nc1nc2ccccc2[nH]1)C1CCN(C(=O)c2ccc(F)cc2)CC1		0.92 µM [rising, full curve, poor fit]	28%
O=C(NCc1ccncc1)c1ccc(S(=O)(=O)Nc2ccccc2)cc1		0.146 µM [falling, full curve, poor fit]	8.38%
Cc1ccc(NC(=O)COc2ccccc2C(=O)NCCc2ccccc2)cc1		29.1 µM [falling, single point]	-22.8%
COc1cc2[nH]c(=O)n(CCCCCC(=O)N3CCN(c4ccccc4)CC3)c(=O)c2cc1OC		4.61 µM [rising, single point]	
O=C(c1ccc(N2CCCC2=O)cc1)N1CCN(c2cccc(C(F)(F)F)c2)CC1	29.1 µM [falling, single point]		-33.7%
C=CCn1c(Cc2ccccc2)nnc1SCc1nc2ccccc2c(=O)[nH]1	6.51 µM [rising, single point]		-6.72%
Cc1c(C(=O)N2CCCCCC2)oc2ccccc12			0.0661%
Cc1ccccc1Nc1c(-c2cccnc2)nc2ccccn12		5.17 µM [rising, single point]	26.8%

SMILES	AC50 [1]	AC50 [2]	cell number change
CC(=O)NS(=O)(=O)c1ccc(NC(=O)c2ccc3c(c2)C(=O)N(CCC(C)C)C3=O)cc1	23.1 µM [rising, single point]		61.4%
CC(C)(C)OC(=O)N1CCN(C(=O)[C@H](Cc2ccc(O)cc2)n2cc(CCO)nn2)CC1			-11.7%
O=C1c2cccnc2C(=O)N1Cc1cccs1		0.116 µM [rising, single point]	
C/C(=N\NC(=O)C1CC1)c1ccc(C)c(C)c1			0.289%
CCOC(=O)C1=C(C)NC2=C(C(=O)CC(C)(C)C2)C1c1cccc(C)n1 (centres undefined)	29.1 µM [falling, single point]		-54.1%
CC1CCCN(Cc2nc3c(c(=O)n(C)c(=O)n3C)n2CC(N)=O)C1 (centres undefined)		29.1 µM [rising, single point]	-13.1%
COc1ccc(-c2csc3ncnc(N4CCN(c5ccccc5OC)CC4)c23)cc1		7.31 µM [rising, partial curve]	-15.2%
COCCn1c(=O)sc2ccccc2c1=O	20.6 µM [rising, single point]	29.1 µM [rising, partial curve, poor fit]	80.7%
CCCCCCCCNC(C)C(O)c1ccc(SC(C)C)cc1 (centres undefined)	18.4 µM [falling, single point]	25.9 µM [falling, partial curve]	-83.6%
Nc1ccc(Cc2nc3cc4ccccc4cc3[nH]2)cc1	8.2 µM [rising, partial curve, poor fit]		31.8%
CCC(=O)Oc1ccc2c(C)cc(=O)oc2c1C(=O)c1ccccc1		0.116 µM [rising, full curve, poor fit]	5.64%
O=C(NCCSc1ncc(-c2ccccc2)[nH]1)c1ccco1		2.31 µM [rising, partial curve, poor fit]	
O=C(NCC1CCCN1S(=O)(=O)c1cccs1)c1ccccc1 (centres undefined)		0.651 µM [falling, single point]	
O=C(O)c1sccc1NC(=O)c1c(Cl)cccc1Cl		0.58 µM [rising, single point]	13.5%
Cc1cc(C)cc(NC(=O)C(NCCN2CCOCC2)c2ccccc2)c1 (centres undefined)	13 µM [rising, partial curve]		67.5%
CNS(=O)(=O)c1ccc2c3c(cccc13)C(=O)N2			-5.96%
COc1ccc(C(=O)OCC(=O)NCC2CCCCC2)c(OC)c1	7.31 µM [rising, partial curve, poor fit]		41.5%
CCOc1ccc(Nc2nc(N)nc(CN3CCN(c4ccccc4F)CC3)n2)cc1	6.51 µM [rising, single point]	25.9 µM [rising, single point]	16%
CC(CN1CCOCC1)OC(=O)c1ccc2c(c1)OCCO2 (centres undefined)		23.1 µM [falling, single point]	3.56%

Some of these compounds in order of heavy-atom count, low to high.
SMILES	AC50 [1]	AC50 [2]	cell number change
O=C(NCCSc1ncc(-c2ccccc2)[nH]1)c1ccco1		2.31 µM [rising, partial curve, poor fit]	
CCC(=O)Oc1ccc2c(C)cc(=O)oc2c1C(=O)c1ccccc1		0.116 µM [rising, full curve, poor fit]	5.64%
CC(C)(C)OC(=O)N1CCN(C(=O)[C@H](Cc2ccc(O)cc2)n2cc(CCO)nn2)CC1			-11.7%
